Our source for the biofilm formation values is the supplement of paper PMC7580552.

Counter-ions that a name gives are not always drawn. The list shows a part of the results. Baselines shift from plate to plate; read single values as rough.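 The strain is a K-12 laboratory model grown without shaking in 96-well plates, and biofilm is the crystal violet stain retained on the wells, read as absorbance. Drugs were picked as candidate specific biofilm blockers when they cut staining strongly but slowed free-floating growth by less than 70%.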

In this test the test system is Escherichia coli W3110. The experiment in a line: biofilm formation (crystal violet staining) relative to untreated control; higher = more biofilm. To be noted: 10 µM; 20-24 h; 30 °C; TB.
As for `CN[C@H]1CC[C@@H](c2ccc(Cl)c(Cl)c2)c2ccccc21` [Sertraline], the biofilm formation worked out at 62%. `CC(=O)Nc1c(I)c(C(=O)N[C@H]2C(O)O[C@H](CO)[C@@H](O)[C@@H]2O)c(I)c(N(C)C(C)=O)c1I` (some centres not stated) [Metrizamide] had a biofilm formation of 102%. For `CCN(CC)CCNC(=O)c1ccc(N)cc1` [Procainamide hydrochloride], the biofilm formation is 64%.

Consider `CNCC(O)c1ccc(O)c(O)c1` (configuration not stated) [Racepinephrine hydrochloride], for which the biofilm formation was 84%. In turn, `CCOC1O[C@H]([C@@H](COCc2ccccc2)OCc2ccccc2)[C@H](OCc2ccccc2)[C@H]1O` (some centres not stated) [Tribenoside] showed a biofilm formation of 76%. In the case of `Cn1c(=O)c2c(ncn2CC2OCCO2)n(C)c1=O` [Doxofylline], the biofilm formation came out at 80%. In turn, `CN1CCN(CC(=O)N2c3ccccc3C(=O)Nc3cccnc32)CC1` [Pirenzepine dihydrochloride] returned a biofilm formation of 59%. For the compound `CC(=O)N(CC(O)CO)c1c(I)c(C(=O)NCC(O)CO)c(I)c(C(=O)NCC(O)CO)c1I` (configuration not stated) [Iohexol], the biofilm formation is 86%.

As for `CN(CCCCCCCCCCN(C)C(=O)Oc1cccc([N+](C)(C)C)c1)C(=O)Oc1cccc([N+](C)(C)C)c1` [Demecarium bromide], the biofilm formation amounted to 74%.

On to `COC(=O)Nc1nc2cc(Sc3ccccc3)ccc2[nH]1` [Fenbendazole], for which the biofilm formation was found to be 87%. The compound `CN(C)CCC(c1ccc(Br)cc1)c1ccccn1` (configuration not stated) [Brompheniramine maleate] had a biofilm formation of 83%. The compound `O=C1CC[C@@H](C(=O)N2CSC[C@H]2C(=O)O)N1` [Pidotimod] had a biofilm formation of 66%. As for `c1ccc(-c2ccc(C(c3ccccc3)n3ccnc3)cc2)cc1` (configuration not stated) [Bifonazole], the figure is 88%; as for `Oc1c(Cl)cc(Cl)c2cccnc12` [Chloroxine], 2%. Compound `CC(=O)OC[C@H]1O[C@@H]([S-])[C@H](OC(C)=O)[C@@H](OC(C)=O)[C@@H]1OC(C)=O.CCP(CC)CC.[Au+]` [Auranofin] returned a biofilm formation of 116%. Turning to `CCCCc1oc2ccc(NS(C)(=O)=O)cc2c1C(=O)c1ccc(OCCCN(CCCC)CCCC)cc1` [Dronedarone hydrochloride], the biofilm formation is 79%. Turning to `CCC1(c2ccccc2)C(=O)NCNC1=O` [Primidone], the biofilm formation is 62%. The compound `Nc1ncnc2c1ncn2[C@@H]1O[C@H](CO)[C@@H](O)[C@@H]1O` [Vidarabine] returned a biofilm formation of 62%. As for `CCOc1nc2cccc(C(=O)O)c2n1Cc1ccc(-c2ccccc2-c2nnn[nH]2)cc1` [Candesartan], the figure is 82%; as for `C[C@@](Cc1ccc(O)c(O)c1)(NN)C(=O)O` [Carbidopa], 84%; as for `CN(C)CCOC(c1ccccc1)c1ccccc1.Cn1c(=O)c2[nH]c(Cl)nc2n(C)c1=O` [Dimenhydrinate], 60%. `CN(CCCN1c2ccccc2CCc2ccccc21)CC(=O)c1ccc(Cl)cc1` [Lofepramine] yielded a biofilm formation of 71%. As for `O=C1NCC2(CCN(CCc3ccccc3)CC2)O1` [Fenspiride hydrochloride], the biofilm formation was 67%. The same measure for `Clc1ccc2c(c1)CCc1cccnc1C2=C1CCNCC1` [Desloratadine]: 66%; for `Cc1[nH]cnc1CN1CCc2c(c3ccccc3n2C)C1=O` [Alosetron hydrochloride]: 61%. `CCCOc1ccc2[nH]c(NC(=O)OC)nc2c1` [Oxibendazol] yielded a biofilm formation of 74%. In turn, `O=C(c1ccc(F)cc1)C1CCN(CCn2c(=O)[nH]c3ccccc3c2=O)CC1` [Ketanserin tartrate hydrate] displayed a biofilm formation of 73%.

In turn, `CCN(CC)C(=O)c1ccc(O)c(OC)c1` [Ethamivan] returned a biofilm formation of 94%. The same measure for `NCCCCCC(=O)O` [Aminocaproic acid]: 84%; for `CN(C)C(=N)NC(=N)N` [Metformin hydrochloride]: 86%. Consider `CC=CC(=O)N(CC)c1ccccc1C` [Crotamiton], for which the biofilm formation is 84%.

`CNCCc1ccccn1` [Betahistine mesylate]: the biofilm formation turned out to be 74%. As for `Nc1nc2c(ncn2COC(CO)CO)c(=O)[nH]1` [Ganciclovir], the figure is 62%. As for `CO[C@H]1/C=C/O[C@@]2(C)Oc3c(C)c(O)c4c(O)c(c5c(nc6cc(C)ccn65)c4c3C2=O)NC(=O)/C(C)=C\C=C\[C@H](C)[C@H](O)[C@@H](C)[C@@H](O)[C@@H](C)[C@H](OC(C)=O)[C@@H]1C` [Rifaximin], the figure is 33%.

As for `O=C1[C@H]2CCCC[C@H]2C(=O)N1CCCCN1CCN(c2nsc3ccccc23)CC1` [Perospirone], the biofilm formation turned out to be 79%. Regarding `Clc1cccc(Cl)c1NC1=NCCN1` [Clonidine hydrochloride], the biofilm formation came out at 61%. As for `CC(=O)O[C@]1(C(C)=O)CC[C@H]2[C@@H]3C=C(Cl)C4=CC(=O)CC[C@]4(C)[C@H]3CC[C@@]21C` [Chlormadinone acetate], the figure is 71%; as for `CCCNC(=O)NS(=O)(=O)c1ccc(Cl)cc1` [Chlorpropamide], 54%. In turn, `CCN(CC)C(C)CN1c2ccccc2Sc2ccccc21` (configuration not stated) [Ethopropazine hydrochloride] came in with a biofilm formation of 67%.

`Cc1cc(O)c(C(=O)N[C@@H](C(=O)N[C@@H]2C(=O)N3C(C(=O)O)=C(CSc4nnnn4C)CS[C@H]23)c2ccc(O)cc2)cn1` [Cefpiramide] yielded a biofilm formation of 10%.

`OCCN1CCN(CC/C=C2/c3ccccc3Sc3ccc(Cl)cc32)CC1` [Zuclopenthixol dihydrochloride] registered a biofilm formation of 54%. `Nc1nc(/C(=C/CC(=O)O)C(=O)N[C@@H]2C(=O)N3C(C(=O)O)=CCS[C@H]23)cs1` [Ceftibuten] came in with a biofilm formation of 50%. The compound `Nc1ccc(/N=N/c2ccccc2)c(N)n1` [Phenazopyridine hydrochloride] registered a biofilm formation of 58%. Compound `CN(C)CCOC(=O)C(c1ccccc1)C1(O)CCCC1` (configuration not stated) [Cyclopentolate hydrochloride] came in with a biofilm formation of 85%. As for `CCC(=O)O[C@]1(C(=O)SCF)[C@H](C)C[C@H]2[C@@H]3C[C@H](F)C4=CC(=O)C=C[C@]4(C)[C@@]3(F)[C@@H](O)C[C@@]21C` [Fluticasone propionate], the figure is 67%. Take `CC[N+](C)(CC)CCC[n+]1c(-c2ccccc2)c2cc(N)ccc2c2ccc(N)cc21` [Propidium iodide]: the biofilm formation turned out to be 69%.

Turning to `O=C(O)c1ccccc1Nc1cccc(C(F)(F)F)c1` [Flufenamic acid], the biofilm formation was determined as 55%. Turning to `Clc1ccc(C(c2ccccc2Cl)C(Cl)Cl)cc1` (configuration not stated) [Mitotane], the biofilm formation was found to be 75%. The same measure for `O=C1O[C@H]([C@@H](O)CO)C(O)=C1O` [Ascorbic acid]: 64%. `Cc1cccc(C)c1OCC(=O)N[C@@H](Cc1ccccc1)[C@@H](O)C[C@H](Cc1ccccc1)NC(=O)[C@H](C(C)C)N1CCCNC1=O` [Lopinavir] registered a biofilm formation of 58%. `Nc1ccc(C(=O)O)c(O)c1` [4-aminosalicylic acid]: the biofilm formation is 82%. In the case of `O=C1Nc2ccc(Cl)cc2[C@@](C#CC2CC2)(C(F)(F)F)O1` [Efavirenz], the biofilm formation was 71%.

Regarding `CCC(C)(C)C(=O)O[C@H]1C[C@@H](C)C=C2C=C[C@H](C)[C@H](CC[C@@H]3C[C@@H](O)CC(=O)O3)[C@H]21` [Simvastatin], the biofilm formation was 62%.

With `CC(=O)Oc1ccc(C(c2ccc(OC(C)=O)cc2)c2ccccn2)cc1` [Bisacodyl], the biofilm formation was 68%. Consider `CCCc1nn(C)c2c(=O)[nH]c(-c3cc(S(=O)(=O)N4CCN(C)CC4)ccc3OCC)nc12` [Sildenafil], for which the biofilm formation was 121%.

`CCCNC(C)(C)COC(=O)c1ccccc1` [Meprylcaine hydrochloride]: the biofilm formation turned out to be 70%.

With `C[N+](C)(CCOc1ccccc1)Cc1ccccc1.O=C([O-])c1cc2ccccc2cc1O` [Bephenium hydroxynaphthoate], the biofilm formation is 56%. Consider `CC(NCCc1ccc(O)cc1)C(O)c1ccc(O)cc1` (configuration not stated) [Ritodrine hydrochloride], for which the biofilm formation amounted to 82%. `CCC1(C)CC(=O)NC1=O` (configuration not stated) [Ethosuximide] registered a biofilm formation of 71%. In turn, `NC1CCN(c2c(F)cc3c(=O)c(C(=O)O)cn(C4CC4)c3c2Cl)C1` (configuration not stated) [Clinafloxacin] came in with a biofilm formation of 14%.

As for `CCc1nn(CCCN2CCN(c3cccc(Cl)c3)CC2)c(=O)n1CCOc1ccccc1` [Nefazodone hydrochloride], the biofilm formation is 78%.

For `CCOC(=O)C1=C(C)NC(C)=C(C(=O)OC)C1c1cccc(Cl)c1Cl` (configuration not stated) [Felodipine], the biofilm formation is 104%. As for `C[C@H](CCC(=O)O)[C@H]1CC[C@H]2[C@@H]3C(=O)C[C@@H]4CC(=O)CC[C@]4(C)[C@H]3CC(=O)[C@]12C` [Dehydrocholic acid], the biofilm formation worked out at 139%. The same measure for `O=C1c2c(O)ccc(O)c2C(=O)c2c(NCCNCCO)ccc(NCCNCCO)c21` [Mitoxantrone dihydrochloride]: 129%; for `O=C(NC(Cc1cc(=O)[nH]c2ccccc12)C(=O)O)c1ccc(Cl)cc1` (configuration not stated) [Rebamipide]: 66%; for `C[N+](C)(C)CCOC(N)=O` [Carbachol]: 80%. As for `CC(C)(C)NC[C@H](O)COc1cccc2c1CCCC2=O` [(-) -Levobunolol hydrochloride], the figure is 87%.

In the case of `Nc1ncn(C2OC(CO)C(O)C2O)c(=O)n1` (configuration not stated) [Azacytidine-5], the biofilm formation amounted to 68%. Turning to `O=C(O)CCC(=O)c1ccc(-c2ccccc2)cc1` [Fenbufen], the biofilm formation was found to be 67%. The compound `CN1CCN2c3ccccc3Cc3ccccc3C2C1` (configuration not stated) [Mianserine hydrochloride] returned a biofilm formation of 61%.

Compound `N[C@@H](Cc1ccc(O)c(O)c1)C(=O)O` [Levodopa] showed a biofilm formation of 67%.

For `CCCCc1ncc(/C=C(\Cc2cccs2)C(=O)O)n1Cc1ccc(C(=O)O)cc1` [Eprosartan mesylate], the biofilm formation is 79%. Compound `O=C1c2cccc(O)c2C(=O)c2c(O)cccc21` [1,8-Dihydroxyanthraquinone] registered a biofilm formation of 75%. `CC(C)NNC(=O)c1ccncc1` [Iproniazide phosphate] yielded a biofilm formation of 55%. The same measure for `CCN(CC)CCNC(=O)c1cc(Br)c(N)cc1OC` [Bromopride]: 83%; for `CCCCC(=O)N(Cc1ccc(-c2ccccc2-c2nnn[nH]2)cc1)[C@H](C(=O)O)C(C)C` [Valsartan]: 115%. In turn, `OC(CCN1CCCCC1)(c1ccccc1)c1ccccc1` [Pridinol methanesulfonate salt] yielded a biofilm formation of 94%.
